This assay concerns the target T1, VSV-SGT1 (UniProt Q9Y2Z0).
T1 sequence: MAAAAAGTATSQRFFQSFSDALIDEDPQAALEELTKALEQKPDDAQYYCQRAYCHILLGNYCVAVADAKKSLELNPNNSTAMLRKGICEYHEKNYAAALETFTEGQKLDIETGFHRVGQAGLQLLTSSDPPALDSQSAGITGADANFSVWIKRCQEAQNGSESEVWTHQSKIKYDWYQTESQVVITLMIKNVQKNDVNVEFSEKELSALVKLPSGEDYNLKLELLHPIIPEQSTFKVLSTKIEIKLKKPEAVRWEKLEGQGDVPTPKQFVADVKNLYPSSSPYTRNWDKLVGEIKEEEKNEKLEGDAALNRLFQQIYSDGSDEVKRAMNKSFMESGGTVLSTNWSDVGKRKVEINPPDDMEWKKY
As to the kind of experiment: co-IP; anti-VSV (P5D4) IP from 293T transfected with VSV-SGT1 and pcDNA3-NLRP3 mutants, 24 h; 1% NP-40 lysis buffer.

Sequences of proteins named here, by UniProt entry; tags and fusion partners are left off. A change or cut given only in a name is not applied to a line headed by its entry.
UniProt Q8R4B8: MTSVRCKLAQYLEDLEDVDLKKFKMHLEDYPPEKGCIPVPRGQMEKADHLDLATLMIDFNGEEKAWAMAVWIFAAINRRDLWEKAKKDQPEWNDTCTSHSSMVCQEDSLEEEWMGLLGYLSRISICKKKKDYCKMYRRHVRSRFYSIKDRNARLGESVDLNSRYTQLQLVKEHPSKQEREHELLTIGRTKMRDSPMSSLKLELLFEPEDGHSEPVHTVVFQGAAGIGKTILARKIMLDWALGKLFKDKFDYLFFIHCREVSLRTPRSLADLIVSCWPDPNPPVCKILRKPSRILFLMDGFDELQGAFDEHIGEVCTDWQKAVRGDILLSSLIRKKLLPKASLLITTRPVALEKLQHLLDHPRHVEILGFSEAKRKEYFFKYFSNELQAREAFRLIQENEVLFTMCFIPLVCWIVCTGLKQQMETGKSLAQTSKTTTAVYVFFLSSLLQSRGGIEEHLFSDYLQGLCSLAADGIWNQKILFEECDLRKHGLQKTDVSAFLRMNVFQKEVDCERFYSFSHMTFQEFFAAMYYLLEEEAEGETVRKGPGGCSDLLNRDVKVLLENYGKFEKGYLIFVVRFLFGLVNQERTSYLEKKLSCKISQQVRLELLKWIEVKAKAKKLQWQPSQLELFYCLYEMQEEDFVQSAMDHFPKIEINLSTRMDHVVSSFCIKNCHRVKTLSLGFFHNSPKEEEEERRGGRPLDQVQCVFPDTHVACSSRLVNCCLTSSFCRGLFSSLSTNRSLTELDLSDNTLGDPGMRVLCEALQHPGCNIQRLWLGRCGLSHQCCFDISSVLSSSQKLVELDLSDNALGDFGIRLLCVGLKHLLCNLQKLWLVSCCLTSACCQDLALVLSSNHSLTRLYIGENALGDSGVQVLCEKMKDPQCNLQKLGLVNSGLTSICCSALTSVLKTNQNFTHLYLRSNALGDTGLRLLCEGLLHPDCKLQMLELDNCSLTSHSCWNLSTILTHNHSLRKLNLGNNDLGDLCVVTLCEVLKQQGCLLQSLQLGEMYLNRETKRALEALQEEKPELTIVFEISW

These are yes or no findings as the source states them, for the method shown. In cells and extracts the contact can be indirect. Binding calls can cover weak binding; strength is not graded here.

Take “NLRP3 S803A (pcDNA3-NLRP3, ectopically expressed in 293T) (from UniProt Q8R4B8)”: the binding result is listed as “binds”.
The entry for “NLRP3 S803D (pcDNA3-NLRP3, ectopically expressed in 293T) (from UniProt Q8R4B8)” is “binds”; for “NLRP3 S803E (pcDNA3-NLRP3, ectopically expressed in 293T) (from UniProt Q8R4B8)” it is “binds”.

For the origin of these results see PMC8494922.
